According to PubChem BioAssay AID504834 (National Center for Advancing Translational Sciences (NCATS), 2011):
The whole screen tested about 320,000 compounds, of which about 22,000 (6.9%) were called active. The inconclusive results got no clear call from the source; some entries with a clear call stand among them for comparison. Calls follow the shape of the dose curve; as a rule, active = well fitted inhibition curve with a large enough effect; inconclusive = small, poorly fitted or top-dose-only effect, or another doubt; inactive = no such curve, though single readings can be large or run the other way. Potencies beside an inconclusive call are fits to weak or partial responses and may not hold up.

test: Primary qHTS for delayed death inhibitors of the malarial parasite plastid, 96 hour incubation; details: P. falciparum luciferase reporter growth; series mostly up to 28.7 µM; activity change, negative = inhibition: at the top concentration
How it was run: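 Luminescence readout: decreased luciferase signal marks inhibited growth of reporter-expressing P. falciparum in infected red cells (2% hematocrit, 0.05% parasitemia final), exposed to compound two generations (96 h, 37 C, 5% CO2).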
% is scaled to controls: 0 for no effect and ±100 for the full control effect; potency is read from the fitted curve at half-maximal effect.

Structure (SMILES) | Potency | activity change, negative = inhibition
O=C(C(NS(=O)(=O)c1cccs1)c1ccccc1)N1CCN(c2ccccc2)CC1 (centres undefined) | active: 11.7 µM | 
COc1ccc(N/C=C(\C#N)S(=O)(=O)c2ccc(OC)cc2)cc1 | inconclusive: 0.185 µM [inhibitor, full curve] | 
COc1cccc(Oc2cnc(N)nc2-c2ccc(OC)cc2O)c1 | inconclusive: 18.5 µM [inhibitor, single point] | 
CN(C)S(=O)(=O)c1cccc(N=C2SCCN2Cc2ccccc2)c1 | inconclusive: 10.4 µM [inhibitor, single point] | 
c1ccc(C2CCC3(CC2)Oc2ccccc2C2CC(c4cccnc4)=NN23)cc1 (centres undefined) |  | inactive: 39.4%
C=C(C)C1CC=C(C)/C(=N/NC(=O)c2ccc(NC(=O)c3cccc(C)c3)cc2)C1 (centres undefined) |  | inactive: -0.326%
CCC(=O)Nc1cccc(C(=O)/C=C/c2cccs2)c1 | inconclusive: 1.65 µM [inhibitor, single point] | 
O=C(O)/C=C/c1cn(Cc2ccccc2Cl)nc1-c1ccccc1 |  | inactive: -11.2%
C=CC(C)Sc1nc2c(c(=O)n(C)c(=O)n2C)n1Cc1ccccc1Cl (centres undefined) | inconclusive: 14.7 µM [inhibitor, single point] | 
COc1ccc(Cl)cc1S(=O)(=O)N1CCN=C1c1ccccc1 | inconclusive: 9.28 µM [inhibitor, partial curve] | 
CCN(CC)S(=O)(=O)c1cc(C(=O)NC2=NCCS2)ccc1Cl |  | inactive: 0.279%
CCCC(=O)NC(=S)Nc1ccc(N2CCOCC2)c(Cl)c1 | active: 11.7 µM | 
CC(CC(=O)N1CCN(S(=O)(=O)c2ccc(Cl)cc2)CC1)n1cncn1 (centres undefined) |  | inactive: 30.2%
CN(c1ccc(C(=O)Nc2ccc(S(=O)(=O)N3CCCC3)cc2)cc1)S(C)(=O)=O | inconclusive: 0.0657 µM [inhibitor, full curve, poor fit] | 
COc1ccc(C(=O)NC(=S)NC(C)(C)C)cc1Br | active: 5.22 µM | 
O=C(OCC(=O)N1CCCCCC1)c1ccccc1Br |  | inactive: 124%
Cc1ccc(C(=O)Nc2cccc([N+](=O)[O-])c2)cc1S(=O)(=O)Nc1ccc(C(=O)O)cc1 | inconclusive: 1.17 µM [inhibitor, partial curve, poor fit] | 
CC1(C)C(=O)OC(c2c3ccccc3cc3ccccc23)C(C)(C)C1=O (centres undefined) | inconclusive: 14.7 µM [inhibitor, partial curve, poor fit] | 
CCCCCn1c(=O)c(C(=O)NCCc2ccccc2)c(O)c2ccccc21 | active: 5.86 µM | 
CCc1ccccc1N1C(=O)CC(Sc2nccc(C)n2)C1=O (centres undefined) | inconclusive: 11.7 µM [inhibitor, single point] | 
Cn1c(=O)c(=O)n(C)c2cc(N3CCOCC3)c(NS(=O)(=O)c3ccc(Br)cc3)cc21 | inconclusive: 1.85 µM [inhibitor, partial curve, poor fit] | 
NC(=O)CSc1nnc(SCc2ccc(F)cc2)s1 | inconclusive: 10.4 µM [inhibitor, single point] | 
O=C(NC(Cc1ccccc1)c1nc2ccccc2[nH]1)c1cccc([N+](=O)[O-])c1 (centres undefined) | active: 11.7 µM | 
CCOC(=S)SCc1cn2ccc(C)cc2n1 | inconclusive: 18.5 µM [inhibitor, partial curve, poor fit] | 

Looked up by compound from the list above (2):
Structure (SMILES) | Potency | activity change, negative = inhibition
CCCCCn1c(=O)c(C(=O)NCCc2ccccc2)c(O)c2ccccc21 | active: 5.86 µM | 
CCCC(=O)NC(=S)Nc1ccc(N2CCOCC2)c(Cl)c1 | active: 11.7 µM | 

At a glance, part of the list above.
Structure (SMILES) | Potency | activity change, negative = inhibition
CN(c1ccc(C(=O)Nc2ccc(S(=O)(=O)N3CCCC3)cc2)cc1)S(C)(=O)=O | inconclusive: 0.0657 µM [inhibitor, full curve, poor fit] | 
COc1ccc(C(=O)NC(=S)NC(C)(C)C)cc1Br | active: 5.22 µM | 

More entries

Structure (SMILES) | Potency | activity change, negative = inhibition
CCN1CCN(c2ccc(S(=O)(=O)N3CCOCC3)cc2NC(=O)c2ccccc2OC(F)F)CC1 | inconclusive: 11.7 µM [inhibitor, single point] | 
CCN1CCN(C(c2cccs2)C(C)NC(=O)c2ccccc2F)CC1 (centres undefined) | inconclusive: 18.5 µM [inhibitor, single point] | 
COc1ccccc1/C=C/C(=O)NCC(=O)N1CCC(N(C)C2CCCC2)CC1 |  | inactive: -26.4%
Cc1cnc(C(=O)Oc2ccc(-c3ccccc3)cc2)cn1 |  | inactive: -26.1%
COc1ccc(OC)c(S(=O)(=O)NCC(c2ccco2)N2CCc3ccccc3C2)c1 (centres undefined) | inconclusive: 18.5 µM [inhibitor, single point] | 
COc1ccc(C2C(C#N)=C(N)Oc3n[nH]c(C)c32)cc1Cn1nc(C)c([N+](=O)[O-])c1C (centres undefined) | inconclusive: 10.4 µM [inhibitor, single point] | 
COc1cccc(CN(C)C(=O)c2csc3c2CCCC3)c1OC | inconclusive: 18.5 µM [inhibitor, single point] | 
COc1ccc(CN(C)CC(O)COC(c2ccccc2)c2ccccc2)c(OC)c1OC (centres undefined) | inconclusive: 18.5 µM [inhibitor, single point] | 
COCC(=O)N1CCC(Oc2ccc(C(=O)NCc3cnc(C)cn3)cc2)CC1 | inconclusive: 18.5 µM [inhibitor, single point] | 
CC(=O)N1CC(C)Oc2ccc(S(=O)(=O)NC(CC(=O)O)c3cc(C)ccc3C)cc21 (centres undefined) | active: 11.7 µM | 
O=C1CSC(c2ccccc2)N1c1cccnc1 (centres undefined) |  | inactive: -13.1%
COc1ccc(-n2c(-c3ccccc3Br)nc3ccccc3c2=O)cc1 |  | inactive: -25.3%
O=C(CSc1nc2ccccc2[nH]1)NCc1ccc2c(c1)OCO2 | active: 4.15 µM | 
Cc1onc(-c2c(F)cccc2Cl)c1C(=O)NCc1cccs1 |  | inactive: 8.27%
COCCn1c(SC(C)C(=O)Nc2ccc(Cl)cn2)nnc1-c1ccncc1 (centres undefined) |  | inactive: 10.5%
O=C(c1ccc([N+](=O)[O-])s1)N1CCc2ccccc2C1 | inconclusive: 2.33 µM [inhibitor, partial curve, poor fit] | 
O=S(=O)(N/N=C1\CCCc2ccccc21)c1ccccc1 |  | inactive: 13.1%
CC(=O)c1ccccc1NC(=O)COC(=O)c1c(C)nn(-c2ccccc2)c1C |  | inactive: 73%
CCOC(=O)[C@@H]1[C@H]2COc3cc(OC)ccc3[C@H]2N2C(=O)N(c3ccc(C)cc3)C(=O)[C@@]12C | inconclusive: 0.165 µM [inhibitor, full curve, poor fit] | 
O=C(CSc1ccc(Cl)cc1)Nc1ccccc1Oc1ccccc1 | inconclusive: 18.5 µM [inhibitor, single point] | 
COc1ccc(CN2CCC(CO)(Cc3ccccc3C(F)(F)F)CC2)c(F)c1 | inconclusive: 9.28 µM [inhibitor, partial curve] | 
O=C(NCCc1c[nH]c2ccccc12)OCCSS(=O)(=O)O | active: 11.7 µM | 
COc1ccc(OC)c(C2CC(=O)NC(SC)=C2C#N)c1 (centres undefined) |  | inactive: 25%
CCOc1ccc(N(CC(=O)N2CCOCC2)S(=O)(=O)c2ccc(F)cc2)cc1 |  | inactive: -12.7%
CCOC(=O)c1ccc2c(c1)n(CC)c(/C=C/Nc1ccccc1)[n+]2CC | inconclusive: 5.22 µM [inhibitor, partial curve, poor fit] | 

Structure (SMILES) | Potency | activity change, negative = inhibition
CCSc1nnc(NS(=O)(=O)c2ccc(C)cc2)s1 |  | inactive: -8.86%
O=C(Nc1ccc(Cl)c(-c2nc3ccccc3[nH]2)c1)c1cccnc1 | inconclusive: 10.4 µM [inhibitor, single point] | 
CC1=Nc2ccccc2/C1=C/c1sc(=O)n(CC(=O)N2CCCC2)c1O |  | inactive: -53.4%
COc1c(Cl)cnn(-c2cccc(C)c2)c1=O |  | inactive: 22.1%
COC(=O)c1cc([N+](=O)[O-])c(-n2ccnc2)c([N+](=O)[O-])c1 | inconclusive: 0.828 µM [inhibitor, full curve, poor fit] | 
COc1cccc(/C=C/C(=O)NNC(=O)c2ccco2)c1OC |  | inactive: 309%
Cc1ccc2[nH]c(C(=O)N3CCN(C(c4ccccc4)c4ccccc4)CC3)cc2c1 | inconclusive: 1.65 µM [inhibitor, full curve, poor fit] | 
CC(=O)Nc1cccc(-c2nnc(SCc3ccccc3C#N)n2C)c1 | inconclusive: 3.29 µM [inhibitor, full curve, poor fit] | 
O=c1c2ccccc2nc(SCc2nc(-c3ccccc3)no2)n1-c1ccc(F)cc1 |  | inactive: 28.8%
CC(C)C[C@H](NC(=O)c1nc[nH]c1C(=O)NCC(=O)OC(C)(C)C)C(=O)OC(C)(C)C | inconclusive: 18.5 µM [inhibitor, single point] | 
O=C(CSc1nc2ccccc2n1Cc1ccccc1)N/N=C/c1ccccc1C(=O)O |  | inactive: -13.1%
CC(C)OC(=O)c1ccc(NC(=S)NC(=O)c2cncc(Br)c2)cc1 | inconclusive: 13.1 µM [inhibitor, single point] | 
O=C(CN1CCOCC1)NN1CC(=O)N(c2ccc(Cl)cc2)CC1=O |  | inactive: -2.58%
COc1ccc(C(CCN2CCCC(C)C2)c2c(OC)cc(OC)c3c2OC(=O)CC3c2cc(OC)c(OC)c(OC)c2)cc1 (centres undefined) | active: 10.4 µM | 
CCC1=NN2C(=N)/C(=C/c3cc(C)n(-c4ccccc4)c3C)C(=O)N=C2S1 | inconclusive: 4.15 µM [inhibitor, single point] | 
Cc1cccc(NC(=O)CSCC(=O)N=c2sccn2C)c1 |  | inactive: 6.29%
COc1ccc(C(=O)NCC(=O)NC2=NCCS2)cc1 |  | inactive: 127%
CCOc1ccccc1NC(=O)Nc1cccc(S(N)(=O)=O)c1 |  | inactive: 20.7%
CC1CC(C)(C)NC(=S)N1CC(=O)NCc1ccc(F)cc1 (centres undefined) |  | inactive: -14.6%
Cc1cc(N2C(=O)C(O)=C(C(=O)c3cc4ccccc4o3)C2c2ccc(Br)cc2)no1 (centres undefined) | inconclusive: 2.62 µM [inhibitor, full curve, poor fit] | 
FC(F)(F)c1ccc(Cl)c(-n2c(-c3cc(C4CC4)[nH]n3)n[nH]c2=S)c1 | inconclusive: 11.7 µM [inhibitor, partial curve] | 
CC(NC(=S)Nc1cccc(C(F)(F)F)c1)C(C)(C)C (centres undefined) | active: 13.1 µM | 
O=C1CN(C(=O)COC(=O)CCSc2ccccc2Cl)c2ccccc2N1 |  | inactive: 1.51%
CCc1ccc(N(CC(=O)NC(C)C)C(=O)CCC(=O)Nc2ccccn2)cc1 | inconclusive: 14.7 µM [inhibitor, partial curve, poor fit] | 
